PubChem BioAssay AID1053209 – Peter MacCallum Cancer Centre, 2014
Purpose: 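Gene losses that combine with doxorubicin to kill mouse bone cancer cells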 (follow-up of hits). System: mouse primary osteosarcoma cells. Reagents: single siRNA against mouse genes, 25 nM (text also states 40 nM). Duration: about 120 h (48 h before drug, then 72 h with drug). Challenge: doxorubicin 100 nM (about IC30-40), added 48 h after transfection, for 72 h. Detection: 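Viability measured by ATP luminescence with and without doxorubicin, each replicate scaled to non-targeting siRNA NT1, averaged over two replicates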. Reading the numbers: viability with doxorubicin, vs NT1: higher = more viable cells under doxorubicin; viability without drug, vs NT1: higher = more viable cells without drug. Active means: 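Counted as active (class LC dox) if viability falls to 0.7 of NT1 or below under doxorubicin but stays within 0.7 to 1.1 without drug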.
Here is a random part of about 1,580 reagents. 207 of all reagents (13%) count as active. 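Rows are single siRNAs; four siRNAs per gene were tested, a gene counting as confirmed only when at least two agree.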 Not all columns of the deposit are shown. No sequences are given here.

Cdc50a [SID152279736]
- combined effect class: normal viability with and without drug
- viability with doxorubicin, vs NT1: 0.96
- viability without drug, vs NT1: 1.08
- call: inactive

Cdc50a [SID152293699]
- combined effect class: low viability only with doxorubicin; normal without drug
- viability with doxorubicin, vs NT1: 0.68
- viability without drug, vs NT1: 0.86
- call: active

Cdc50a [SID152306494]
- combined effect class: normal viability with and without drug
- viability with doxorubicin, vs NT1: 1
- viability without drug, vs NT1: 0.95
- call: inactive

Cdc50a [SID152340318]
- combined effect class: low viability only with doxorubicin; normal without drug
- viability with doxorubicin, vs NT1: 0.64
- viability without drug, vs NT1: 0.94
- call: active

Reg1 [SID152261220]
- combined effect class: low viability only with doxorubicin; normal without drug
- viability with doxorubicin, vs NT1: 0.48
- viability without drug, vs NT1: 0.71
- call: active

Reg1 [SID152266742]
- combined effect class: normal viability with and without drug
- viability with doxorubicin, vs NT1: 0.71
- viability without drug, vs NT1: 0.93
- call: inactive

Reg1 [SID152307447]
- combined effect class: normal viability with and without drug
- viability with doxorubicin, vs NT1: 0.92
- viability without drug, vs NT1: 1.02
- call: inactive

Reg1 [SID152315003]
- combined effect class: normal viability with and without drug
- viability with doxorubicin, vs NT1: 0.74
- viability without drug, vs NT1: 0.84
- call: inactive

Snrpe [SID152260310]
- combined effect class: low viability with and without drug
- viability with doxorubicin, vs NT1: 0.16
- viability without drug, vs NT1: 0.36
- call: inactive

Snrpe [SID152297134]
- combined effect class: low viability with and without drug
- viability with doxorubicin, vs NT1: 0.08
- viability without drug, vs NT1: 0.29
- call: inactive

Snrpe [SID152312202]
- combined effect class: low viability with and without drug
- viability with doxorubicin, vs NT1: 0.26
- viability without drug, vs NT1: 0.38
- call: inactive

Snrpe [SID152318888]
- combined effect class: low viability with and without drug
- viability with doxorubicin, vs NT1: 0.15
- viability without drug, vs NT1: 0.33
- call: inactive

Usp1 [SID152266384]
- combined effect class: normal viability with and without drug
- viability with doxorubicin, vs NT1: 0.88
- viability without drug, vs NT1: 0.88
- call: inactive

Usp1 [SID152272589]
- combined effect class: normal viability with and without drug
- viability with doxorubicin, vs NT1: 0.98
- viability without drug, vs NT1: 1
- call: inactive

Usp1 [SID152277802]
- combined effect class: normal viability with and without drug
- viability with doxorubicin, vs NT1: 1.02
- viability without drug, vs NT1: 1.01
- call: inactive

Usp1 [SID152305796]
- combined effect class: normal viability with and without drug
- viability with doxorubicin, vs NT1: 0.94
- viability without drug, vs NT1: 0.99
- call: inactive

Rps5 [SID152278352]
- combined effect class: low viability with and without drug
- viability with doxorubicin, vs NT1: 0.22
- viability without drug, vs NT1: 0.29
- call: inactive

Rps5 [SID152283338]
- combined effect class: low viability with and without drug
- viability with doxorubicin, vs NT1: 0.29
- viability without drug, vs NT1: 0.3
- call: inactive

Rps5 [SID152337025]
- combined effect class: low viability with and without drug
- viability with doxorubicin, vs NT1: 0.26
- viability without drug, vs NT1: 0.3
- call: inactive

Rps5 [SID152341908]
- combined effect class: low viability with and without drug
- viability with doxorubicin, vs NT1: 0.24
- viability without drug, vs NT1: 0.46
- call: inactive

Snrpc [SID152262016]
- combined effect class: low viability only with doxorubicin; normal without drug
- viability with doxorubicin, vs NT1: 0.37
- viability without drug, vs NT1: 0.74
- call: active

Snrpc [SID152294835]
- combined effect class: normal viability with and without drug
- viability with doxorubicin, vs NT1: 0.82
- viability without drug, vs NT1: 0.86
- call: inactive

Snrpc [SID152315429]
- combined effect class: normal viability with and without drug
- viability with doxorubicin, vs NT1: 0.73
- viability without drug, vs NT1: 0.8
- call: inactive

Snrpc [SID152317935]
- combined effect class: normal viability with and without drug
- viability with doxorubicin, vs NT1: 0.76
- viability without drug, vs NT1: 0.98
- call: inactive

Part of the list above, set out differently:
| gene | PubChem SID | combined effect class | viability with doxorubicin, vs NT1 | viability without drug, vs NT1 | call |
| --- | --- | --- | --- | --- | --- |
| Snrpe | SID152260310 | low viability with and without drug | 0.16 | 0.36 | inactive |
| Snrpe | SID152297134 | low viability with and without drug | 0.08 | 0.29 | inactive |
| Snrpe | SID152312202 | low viability with and without drug | 0.26 | 0.38 | inactive |
